PubChem BioAssay AID1053208, Peter MacCallum Cancer Centre | 2014
In all, the deposit lists about 17,000 reagents; this is a random part of them. Of all reagents, 788 (4.7%) were called active. 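Calls rest on z-score classes alone; an extra cut-off of viability at most 70% of control was not applied to them.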

Aim: 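Find knock-downs that sensitise mouse osteosarcoma cells to doxorubicin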 (primary screen)
Cells: mouse osteosarcoma cells, early-passage culture from an engineered mouse model of fibroblastic bone tumour
Reagents: siRNA pool against mouse genes, 40 nM
Timing: about 120 h (48 h before drug, then 72 h with drug)
Treatment: doxorubicin 100 nM for 72 h, roughly 30-40% inhibitory dose
Measured: 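Viability read as ATP luminescence after 72 h of 100 nM doxorubicin or none, duplicate wells averaged, scaled to non-targeting siRNA, then expressed as robust z-scores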
Scale: viability z-score with doxorubicin and doxorubicin viability vs non-targeting: higher = more viable cells under doxorubicin; viability z-score without drug: higher = more viable cells with knock-down alone; z-score of drug to no-drug ratio: higher = less drug sensitisation by knock-down
Call rule: 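Called active if knock-down leaves viability unchanged without drug (z within -2 to 2) but lowers it with doxorubicin (z at or under -2)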

gene knocked down,combined z-score class,viability z-score with doxorubicin,viability z-score without drug,z-score of drug to no-drug ratio,doxorubicin viability vs non-targeting,outcome
Adipor1,no change with or without drug,1.01,0,1.12,1.03,inactive
Gm15850,no change with or without drug,-0.34,-1.01,0.45,0.91,inactive
Krt12,no change with or without drug,-0.9,-0.51,-0.56,0.86,inactive
Slc12a6,no change with or without drug,-0.67,-1.52,0.45,0.88,inactive
Zfp474,no change with or without drug,0.22,1.85,-0.79,0.96,inactive
Tnfrsf13c,no change with or without drug,0,-0.51,0.45,0.94,inactive
Cox6b1,no change with or without drug,0.56,1.85,-0.56,0.99,inactive
Dnm3,no change with or without drug,0.45,-0.84,1.24,0.98,inactive
Cldn19,low cell count with and without drug,-2.59,-2.53,-1.01,0.71,inactive
Slitrk4,no change with or without drug,-0.79,-1.52,0.34,0.87,inactive
Usp43,no change with or without drug,-0.56,1.69,-1.46,0.89,inactive
Abcb1a,no change with or without drug,-1.01,0.51,-1.24,0.85,inactive
Slc2a9,no change with or without drug,0.22,-1.69,1.69,0.96,inactive
Sertm1,no change with or without drug,1.91,1.85,0.79,1.11,inactive
Qrfpr,no change with or without drug,1.01,-0.84,1.8,1.03,inactive
Thada,no change with or without drug,0.22,0.17,0.22,0.96,inactive
Patl2,low cell count with doxorubicin only,-2.7,0.34,-2.92,0.7,active
C8b,no change with or without drug,-0.22,0.17,-0.22,0.92,inactive
Phf21a,no change with or without drug,-0.45,-0.17,-0.22,0.9,inactive
Or6z5,no change with or without drug,0.45,0.84,0,0.98,inactive

Quoted from above for reference:
gene knocked down,combined z-score class,viability z-score with doxorubicin,viability z-score without drug,z-score of drug to no-drug ratio,doxorubicin viability vs non-targeting,outcome
Slc2a9,no change with or without drug,0.22,-1.69,1.69,0.96,inactive
Sertm1,no change with or without drug,1.91,1.85,0.79,1.11,inactive
Qrfpr,no change with or without drug,1.01,-0.84,1.8,1.03,inactive
